Test results taken from publication PMC12728225.
No constants are given. Whether binding was seen depends on the method and setting. In cells and extracts the contact can be indirect. Some entries that bind do so weakly or less than the wild type. Sequences can lack the tags named with a protein.

Protein sequences, listed by entry. Tags and fused reporters are not part of them.
UniProt O46036: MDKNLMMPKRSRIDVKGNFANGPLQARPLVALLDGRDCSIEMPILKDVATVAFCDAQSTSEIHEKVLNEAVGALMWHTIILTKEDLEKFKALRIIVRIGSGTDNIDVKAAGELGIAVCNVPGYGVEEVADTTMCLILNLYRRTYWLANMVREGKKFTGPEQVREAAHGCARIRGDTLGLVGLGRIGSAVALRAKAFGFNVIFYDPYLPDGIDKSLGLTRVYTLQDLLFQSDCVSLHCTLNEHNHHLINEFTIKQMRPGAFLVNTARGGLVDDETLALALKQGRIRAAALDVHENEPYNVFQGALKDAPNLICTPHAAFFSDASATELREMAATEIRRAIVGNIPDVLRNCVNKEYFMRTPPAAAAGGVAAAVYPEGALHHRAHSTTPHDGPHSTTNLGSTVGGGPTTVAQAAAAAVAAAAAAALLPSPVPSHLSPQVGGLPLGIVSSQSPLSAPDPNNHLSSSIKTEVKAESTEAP

T1: Drosophila histone deacetylase 3, Flag-tagged (HDAC3-Flag) (Drosophila) (UniProt Q7KTS4)
T1 sequence: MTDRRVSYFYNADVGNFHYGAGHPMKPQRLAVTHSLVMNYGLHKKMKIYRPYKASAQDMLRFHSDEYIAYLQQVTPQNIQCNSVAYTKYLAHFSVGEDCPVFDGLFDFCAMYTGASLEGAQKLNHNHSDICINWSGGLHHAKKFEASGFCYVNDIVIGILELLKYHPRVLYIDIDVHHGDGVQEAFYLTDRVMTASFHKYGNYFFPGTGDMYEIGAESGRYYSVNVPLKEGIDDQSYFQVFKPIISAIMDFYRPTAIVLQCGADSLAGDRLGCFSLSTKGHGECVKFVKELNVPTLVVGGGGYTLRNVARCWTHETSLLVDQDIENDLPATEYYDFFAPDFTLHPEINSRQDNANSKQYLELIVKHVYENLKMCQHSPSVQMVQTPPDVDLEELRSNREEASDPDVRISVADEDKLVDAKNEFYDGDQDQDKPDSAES

B1: Drosophila histone deacetylase 3, Flag-tagged (HDAC3-Flag) (enzyme, UniProt Q7KTS4 1-438)
chain: T1 sequence

Legend:
[1] = biological target: T1, Drosophila histone deacetylase 3, Flag-tagged (HDAC3-Flag) (Drosophila); test: co-IP; Kc cells with CtBP-V5 and HDAC3-Flag lysed in NP-40 lysis buffer with protease inhibitors; protein A + G agarose beads and antibody to the tag, overnight at 4 °C; reciprocal precipitation; detection by Western blot
[2] = biological target: Drosophila C-terminal binding protein, V5-tagged (CtBP-V5) (Drosophila) (UniProt O46036); test: as above

Molecule	binding [1]	binding [2]
Drosophila C-terminal binding protein, V5-tagged (CtBP-V5) (from UniProt O46036 1-476)	binds	–
B1	–	binds
